For at least one entry, the source does not settle the construct or the ends of the probe.
Test system: Sequenase 2.0 (modified T7 DNA polymerase)
Assay: binding assay
Conditions: rolling circle dNTP incorporation on DE81 filters; 10 mM Mg acetate, 50 mM K acetate, pH 7.9, 37 C, with E. coli SSB; purified recombinant protein; protein details: United States Biochemical; folded or branched DNA

TCTGTTTATAGGGCCTCTTCGCTATTACGCCAGC [M13 (+) strand ssDNA circle singly primed with F4]
binding result: binds

Reference: US6235502
